Values of other authors, collected in US20020198176A1, “Treatment of psoriasis with matrix metalloproteinase inhibitors” (priority 2000, published 2002).
At least one structure is not confirmed: it was looked up by name or label, or the drawing left a doubt.

Test system: phospholipase A2

SMILES	inhibition of phospholipase A2
CN(C)c1ccc(O)c2c1C[C@H]1C[C@H]3[C@H](N(C)C)C(O)=C(C(N)=O)C(=O)[C@@]3(O)C(O)=C1C2=O [minocycline]	inhibit phospholipase A2
C[C@H]1c2cccc(O)c2C(=O)C2=C(O)[C@]3(O)C(=O)C(C(N)=O)=C(O)[C@@H](N(C)C)[C@@H]3[C@@H](O)[C@@H]21 [doxycycline]	inhibit phospholipase A2
